Among the data in publication doi:10.1101/2025.03.27.645694 are binding values, retold here.

Sequences of proteins named here, by UniProt entry; tags and fusion partners are left off.
UniProt Q9D9L5: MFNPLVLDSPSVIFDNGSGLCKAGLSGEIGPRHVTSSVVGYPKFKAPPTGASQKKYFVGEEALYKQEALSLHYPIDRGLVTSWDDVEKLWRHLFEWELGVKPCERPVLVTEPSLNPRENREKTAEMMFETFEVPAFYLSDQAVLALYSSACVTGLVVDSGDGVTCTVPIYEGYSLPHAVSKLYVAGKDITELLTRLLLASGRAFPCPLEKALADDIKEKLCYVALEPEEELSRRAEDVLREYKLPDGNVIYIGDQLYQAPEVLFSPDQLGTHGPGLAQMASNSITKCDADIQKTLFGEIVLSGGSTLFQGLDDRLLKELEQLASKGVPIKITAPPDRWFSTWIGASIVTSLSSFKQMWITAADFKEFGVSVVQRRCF

The test concerns the target T1, Actin-related protein M1 (ARPM1), HA-tagged (mouse) (UniProt Q8BXF8).
T1 sequence: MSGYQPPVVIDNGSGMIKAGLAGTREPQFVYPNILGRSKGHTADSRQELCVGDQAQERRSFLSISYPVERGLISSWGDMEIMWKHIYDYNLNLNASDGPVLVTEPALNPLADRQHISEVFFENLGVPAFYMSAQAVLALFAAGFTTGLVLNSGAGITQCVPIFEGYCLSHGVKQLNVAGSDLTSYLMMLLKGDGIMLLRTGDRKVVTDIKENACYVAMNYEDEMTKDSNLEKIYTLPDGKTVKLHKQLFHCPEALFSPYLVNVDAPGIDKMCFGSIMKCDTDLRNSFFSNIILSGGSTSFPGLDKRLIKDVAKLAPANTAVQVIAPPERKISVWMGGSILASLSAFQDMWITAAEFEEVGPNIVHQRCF
Briefly: co-IP.

Results are given in words; binding and its absence hold for the method and conditions named. Binding seen in cells or lysates may run through a third protein. Some results given as binding are weak or reduced against the parent protein; the word gives no strength. Sequences can lack the tags named with a protein.

Regarding “ACTRT2, Myc-tagged (from UniProt Q9D9L5 1-377)”, the binding result was “binds”.
